# From the supplement of paper PMC9938546
# Counter-ions that a name gives are not always drawn. The list shows a part of the results. Baselines shift from plate to plate; read single values as rough.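 HCT116-GFP, a KRAS-mutant, microsatellite-unstable human colorectal cancer line, constantly expresses green fluorescent protein; immune cells were from healthy donors. Cancer cell survival was tracked by live-cell imaging of green fluorescence, and activated immune cells by themselves reduced survival to roughly half.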
# System: HCT116-GFP
# Test: HCT116-GFP viability (GFP intensity) relative to untreated HCT116-GFP monoculture control, co-culture with activated PBMCs; higher = less cancer cell killing
# Conditions: culture: co-culture with anti-CD3/IL2 activated PBMCs 1:1; 10 µM; 72 h
row,SMILES,HCT116-GFP viability
1,CC(C)NC[C@@H](O)COc1cccc2ccccc12 [(R)-Propranolol hydrochloride],61.2%
2,CNCC(O)c1ccc(OC(=O)C(C)(C)C)c(OC(=O)C(C)(C)C)c1 (stereo not drawn) [Dipivefrin hydrochloride],70.8%
3,"CC(C)NCC(O)c1ccc(O)c(O)c1 (single isomer, unassigned; (+)) [(+)-Isoproterenol (+)-bitartrate salt]",75.3%
4,CCN(CC)CCc1nc(-c2ccccc2)no1 [Oxalamine citrate salt],79%
5,Cc1c(N(C)CS(=O)(=O)O)c(=O)n(-c2ccccc2)n1C [Dipyrone],70.5%
6,CC(NCCC(c1ccccc1)c1ccccc1)c1ccccc1 (stereo not drawn) [Fendiline hydrochloride],41.2%
7,O=c1[nH]c(=O)n(C2CCCO2)cc1F (stereo not drawn) [Tegafur],7.7%
8,COc1c2occc2c(OC)c2c(=O)cc(C)oc12 [Khellin],45.5%
9,CC[C@H](C)C(=O)O[C@H]1CCC=C2C=C[C@H](C)[C@H](CC[C@@H]3C[C@@H](O)CC(=O)O3)[C@H]21 [Mevastatin],11.1%
10,Nc1cc(C(Cl)=C(Cl)Cl)c(S(N)(=O)=O)cc1S(N)(=O)=O [Clorsulon],56%
11,CN1CCN(c2c(F)cc3c(=O)c(C(=O)O)cn(CCF)c3c2F)CC1 [Fleroxacin],58.9%
12,C[C@H](CCC(=O)O)[C@H]1CC[C@H]2[C@@H]3[C@H](O)C[C@@H]4C[C@H](O)CC[C@]4(C)[C@H]3CC[C@]12C [Chenodiol],49.6%
13,CC(=O)OCC(CCn1cnc2cnc(N)nc21)COC(C)=O [Famciclovir],51.2%
14,NNc1nncc2ccccc12 [Hydralazine hydrochloride],33.4%
15,Cc1nc(=O)c2cc(CN(C)c3ccc(C(=O)N[C@@H](CCC(=O)O)C(=O)O)s3)ccc2[nH]1 [Raltitrexed],23.5%
16,CN1CCN(CCCN2c3ccccc3Sc3ccc(Cl)cc32)CC1 [Prochlorperazine dimaleate],48.7%
17,O=c1oc2ccccc2c(O)c1Cc1c(O)c2ccccc2oc1=O [Dicumarol],69.1%
18,COc1ccc(C2CNC(=O)C2)cc1OC1CCCC1 (stereo not drawn) [Rolipram],74.5%
19,O=S(=O)(O)c1cc(O)ccc1O [Ethamsylate],48.8%
20,CCC(=O)O[C@]1(C(=O)CCl)[C@@H](C)C[C@H]2[C@@H]3CCC4=CC(=O)C=C[C@]4(C)[C@@]3(F)[C@@H](O)C[C@@]21C [Clobetasol propionate],80.2%
21,c1ccc([C@H]2CN3CCSC3=N2)cc1 [Levamisole hydrochloride],39.7%
22,O=C1OCCN1/N=C/c1ccc([N+](=O)[O-])o1 [Furazolidone],61.3%
23,Nc1nc2n[nH]nc2c(=O)[nH]1 [Azaguanine-8],40%
24,CN(C)c1nc(N(C)C)nc(N(C)C)n1 [Altretamine],70.1%
25,CC(C)NCC(O)c1ccc2ccccc2c1 (stereo not drawn) [Pronethalol hydrochloride],52.2%

row,SMILES,HCT116-GFP viability
1,"C[C@H]1C[C@@H]2[C@H]([C@@H](O)C[C@@]3(C)[C@H]2CC[C@]3(O)C(=O)CO)[C@@]2(C)C=CC(=O)C=C12 [Methylprednisolone, 6-alpha]",73.9%
2,CCCNCC(O)COc1ccccc1C(=O)CCc1ccccc1 (stereo not drawn) [Propafenone hydrochloride],66.4%
3,NC(=O)C(c1ccccc1)(c1ccccc1)[C@@H]1CCN(CCc2ccc3c(c2)CCO3)C1 [Darifenacin hydrobromide],48.1%
4,COc1cc([C@@H]2c3cc4c(cc3[C@@H](O[C@@H]3O[C@@H]5CO[C@@H](C)O[C@H]5[C@H](O)[C@H]3O)[C@H]3COC(=O)[C@H]23)OCO4)cc(OC)c1O [Etoposide],14.5%
5,COc1ccccc1OCC(O)CN1CCN(CC(=O)Nc2c(C)cccc2C)CC1 (stereo not drawn) [Ranolazine],37.9%
6,CC[C@H]1OC(=O)[C@H](C)[C@@H](O[C@H]2C[C@@](C)(OC)[C@@H](O)[C@H](C)O2)[C@H](C)[C@@H](O[C@@H]2O[C@H](C)C[C@H](N(C)C)[C@H]2O)[C@](C)(O)C[C@@H](C)[C@@H]2N[C@@H](COCCOC)O[C@H]([C@H]2C)[C@]1(C)O [Dirithromycin],49.6%
7,O=C1CC2(CCCC2)CC(=O)N1CCCCN1CCN(c2ncccn2)CC1 [Buspirone hydrochloride],36.3%
8,C[C@H](O)C(=O)Nc1c(I)c(C(=O)NC(CO)CO)c(I)c(C(=O)NC(CO)CO)c1I [Iopamidol],61.1%
9,CC(C)CC(=O)N[C@H](C(=O)N[C@H](C(=O)N[C@@H](CC(C)C)[C@@H](O)CC(=O)N[C@@H](C)C(=O)N[C@@H](CC(C)C)[C@@H](O)CC(=O)O)C(C)C)C(C)C [Pepstatin A],47.4%
10,Nc1ccc(S(=O)(=O)Nc2ccnn2-c2ccccc2)cc1 [Sulfaphenazole],38.2%
11,CO/N=C(\C(=O)N[C@@H]1C(=O)N2C(C(=O)O)=C(COC(N)=O)CS[C@H]12)c1ccco1 [Cefuroxime sodium salt],68.7%
12,O=C(NCC(O)CO)c1c(I)c(C(=O)NCC(O)CO)c(I)c(N(CCO)C(=O)CO)c1I (stereo not drawn) [Ioversol],62.7%
13,CC1Cc2ccccc2N1NC(=O)c1ccc(Cl)c(S(N)(=O)=O)c1 (stereo not drawn) [Indapamide],59.7%
14,Cc1cc(CC(=O)O)n(C)c1C(=O)c1ccc(Cl)cc1 [Zomepirac sodium salt],69.6%
15,O=C(O)COC(=O)Cc1ccccc1Nc1c(Cl)cccc1Cl [Aceclofenac],21.8%
16,Cc1cnc(NC(=O)C2=C(O)c3ccccc3S(=O)(=O)N2C)s1 [Meloxicam],52.3%
17,CC1CC(OC(=O)C(O)c2ccccc2)CC(C)(C)N1C (stereo not drawn) [Eucatropine hydrochloride],68.8%
18,Cc1nnc(NS(=O)(=O)c2ccc(N)cc2)s1 [Sulfamethizole],86.7%
19,CCN1CCN(c2cc3c(cc2F)c(=O)c(C(=O)O)cn3C2CC2)CC1 [Enrofloxacin],47.3%
20,CCN1CCC[C@H]1CNC(=O)c1c(OC)ccc(Br)c1OC [Remoxipride Hydrochloride],35.3%
21,Oc1ccc(OCc2ccccc2)cc1 [Monobenzone],64.6%
22,C[C@H]1C[C@H]2[C@@H]3CCC4=CC(=O)C=C[C@]4(C)[C@@]3(F)[C@@H](O)C[C@]2(C)[C@@]1(O)C(=O)CO [Betamethasone],74.7%
23,CN(C)CCOc1ccc(/C(=C(/CCCl)c2ccccc2)c2ccccc2)cc1 [Toremifene],60.1%
24,CCN1CCN(C(=O)N[C@@H](C(=O)N[C@@H]2C(=O)N3C(C(=O)O)=C(CSc4nnnn4C)CS[C@H]23)c2ccc(O)cc2)C(=O)C1=O [Cefoperazone dihydrate],46.5%
25,C=C1/C(=C\C=C2/CCC[C@]3(C)[C@@H]([C@H](C)/C=C/[C@@H](O)C4CC4)CC[C@@H]23)C[C@@H](O)C[C@@H]1O [Calcipotriene],51.5%

row,SMILES,HCT116-GFP viability
1,Cc1ccc(Cl)c(Nc2ccccc2C(=O)O)c1Cl [Meclofenamic acid sodium salt monohydrate],33.2%
2,O=C(NCCO[N+](=O)[O-])c1cccnc1 [Nicorandil],39.6%
3,COC(=O)Nc1nc2ccc(SC(C)C)cc2[nH]1 [Methiazole],4.23%
4,CC1=Nc2ccc(Cl)cc2S(=O)(=O)N1 [Diazoxide],36.5%
5,CC(C(=O)O)c1ccc(N2Cc3ccccc3C2=O)cc1 (stereo not drawn) [Indoprofen],64.4%
6,CCn1nc(C(=O)O)c(=O)c2cc3c(cc21)OCO3 [Cinoxacin],80.4%
7,Cc1cc(/C=C/c2ccc3cc(N(C)C)ccc3[n+]2C)c(C)n1-c1ccccc1 [Pyrvinium pamoate],54.7%
8,CCCCNc1ccc(C(=O)OCCOCCOCCOCCOCCOCCOCCOCCOCCOC)cc1 [Benzonatate],51.6%
9,COCCOC(=O)C1=C(C)NC(C)=C(C(=O)OC/C=C/c2ccccc2)C1c1cccc([N+](=O)[O-])c1 (stereo not drawn) [Cilnidipine],28.7%
10,O=C(O)/C=C/c1ccc(Cn2ccnc2)cc1 [Ozagrel hydrochloride],47.3%
11,CCCc1nc(C)c2c(=O)nc(-c3cc(S(=O)(=O)N4CCN(CC)CC4)ccc3OCC)[nH]n12 [Vardenafil],40%
12,CCCNC(C)C(=O)Nc1ccccc1C (stereo not drawn) [Prilocaine hydrochloride],37.8%
13,COc1ccc(CN(CCN(C)C)c2ccccn2)cc1 [Pyrilamine maleate],56.3%
14,CC(COc1ccccc1)N(CCCl)Cc1ccccc1 (stereo not drawn) [Phenoxybenzamine hydrochloride],66.8%
15,CCCCC[C@H](O)/C=C/[C@@H]1[C@@H](C/C=C\CCCC(=O)O)[C@@H](O)C[C@H]1O [Dinoprost trometamol],61.8%
16,CC(=O)c1ccc(S(=O)(=O)NC(=O)NC2CCCCC2)cc1 [Acetohexamide],42%
17,CCCN[C@H]1CCc2nc(N)sc2C1 [Pramipexole dihydrochloride],42.4%
18,CCOC(=O)c1ccc(OC(=O)CCCCCNC(=N)N)cc1 [Gabexate mesilate],34.3%
19,Cc1cc(=O)oc2cc(O)ccc12 [Hymecromone],66.2%
20,Cn1c(=O)c2nc[nH]c2n(C)c1=O [Theophylline monohydrate],63.1%
21,c1ccc(C2CN3CCSC3=N2)cc1 (stereo not drawn) [Tetramisole hydrochloride],41.7%
22,C=C1c2cccc(O)c2C(=O)C2=C(O)[C@]3(O)C(=O)C(C(N)=O)=C(O)[C@@H](N(C)C)[C@@H]3[C@@H](O)[C@H]12 [Methacycline hydrochloride],50.7%
23,Cc1scc2c1N(C(=O)CN1CCN(C)CC1)c1ccccc1NC2=O [Telenzepine dihydrochloride],36.3%

# A draw from above in order of length of the SMILES, falling:
row,SMILES,HCT116-GFP viability
22,C=C1c2cccc(O)c2C(=O)C2=C(O)[C@]3(O)C(=O)C(C(N)=O)=C(O)[C@@H](N(C)C)[C@@H]3[C@@H](O)[C@H]12 [Methacycline hydrochloride],50.7%
17,CCCN[C@H]1CCc2nc(N)sc2C1 [Pramipexole dihydrochloride],42.4%
12,CCCNC(C)C(=O)Nc1ccccc1C (stereo not drawn) [Prilocaine hydrochloride],37.8%
